Laboratory results: patent US20140370521A1, “IDENTIFICATION OF TWO NOVEL BIOMARKERS FOR NIEMANN-PICK DISEASE TYPE C” (The USA , as Represented by the Secretary, Department of …, priority 2011, published 2014)

System: Npc1-/- mouse liver
Experiment: Liver gene expression microarray, Npc1-/- versus control mice (Affymetrix Mouse GeneChip 1.0 ST)
Conditions: negative = lower in Npc1−/−
[1] = head prints "weeks" (column between 7 weeks and 11 weeks)

| Substance | FC (fold-change of expression between Npc1−/− and control mice) (5 weeks of age) | FC (fold-change of expression between Npc1−/− and control mice) (7 weeks of age) | FC (fold-change of expression between Npc1−/− and control mice) (11 weeks of age) | FC (fold-change of expression between Npc1−/− and control mice) [1] | FC (fold-change of expression between Npc1−/− and control mice) (3 weeks of age) | FC (fold-change of expression between Npc1−/− and control mice) (1 week of age) |
| --- | --- | --- | --- | --- | --- | --- |
| Adm (YRQSMNQGSRSNGCRFGTCTFQKLAHQIYQLTDKDKDGMAPRNKISPQGY; UniProt P97297 95-144, looked up) | 1.40 | 1.56 | 2.39 | 1.52 | – | – |
| Colla1 | 1.50 | 1.88 | – | 1.40 | 1.49 | – |
| Colla2 | 1.39 | 1.59 | – | 1.45 | 1.40 | – |
| Ctsb | 1.68 | 2.15 | 2.58 | 2.17 | 1.49 | – |
| Ctsl | 1.62 | 1.42 | 2.43 | 2.02 | – | 1.33 |
| Defb1 (DQYKCLQHGGFCLRSSCPSNTKLQGTCKPDKPNCCKS; UniProt P56386 33-69, looked up) | 1.85 | 2.04 | 4.47 | 1.85 | 1.91 | – |
| Igf1 | −1.43 | −1.65 | −1.92 | −1.45 | – | – |
| Leap2 (MTPFWRGVSLRPIGASCRDDSECITRLCRKRRCSLSVAQE; UniProt Q91V13 37-76, looked up) | – | −1.59 | −3.14 | −1.36 | −2.06 | – |
| Mbl1 | −1.54 | −1.59 | −2.85 | −1.52 | – | – |
| Mmp2 | 1.32 | 1.51 | 1.57 | 1.34 | – | – |
| Mmp12 | 13.58 | 23.91 | 19.18 | 26.27 | 7.13 | – |
| Pdgfa | 1.30 | 1.89 | 1.39 | 1.48 | 1.32 | – |
| Plau | 2.01 | 2.78 | 2.47 | 2.27 | 1.52 | – |
| Plaur | 1.94 | 3.13 | 5.45 | 3.67 | 1.46 | – |
| Sparcl1 | 1.53 | 2.24 | 2.82 | 2.15 | 1.63 | – |
| Svep1 | 1.36 | 1.68 | 1.61 | 1.57 | 1.35 | – |
| Tfrc | 1.69 | 2.12 | 3.41 | 2.06 | 1.53 | – |
| Thbs1 | 1.42 | 1.67 | 1.73 | 1.69 | 1.43 | – |
| Thbs2 | 1.34 | 1.42 | 1.63 | 1.55 | – | – |

What was measured is the transcript of the gene that encodes the chain shown.
